# Reference: patent US20240124881
# The chains behind the UniProt entries cited, without tags or fusion partners.
# UniProt Q8CJG0, whole entry: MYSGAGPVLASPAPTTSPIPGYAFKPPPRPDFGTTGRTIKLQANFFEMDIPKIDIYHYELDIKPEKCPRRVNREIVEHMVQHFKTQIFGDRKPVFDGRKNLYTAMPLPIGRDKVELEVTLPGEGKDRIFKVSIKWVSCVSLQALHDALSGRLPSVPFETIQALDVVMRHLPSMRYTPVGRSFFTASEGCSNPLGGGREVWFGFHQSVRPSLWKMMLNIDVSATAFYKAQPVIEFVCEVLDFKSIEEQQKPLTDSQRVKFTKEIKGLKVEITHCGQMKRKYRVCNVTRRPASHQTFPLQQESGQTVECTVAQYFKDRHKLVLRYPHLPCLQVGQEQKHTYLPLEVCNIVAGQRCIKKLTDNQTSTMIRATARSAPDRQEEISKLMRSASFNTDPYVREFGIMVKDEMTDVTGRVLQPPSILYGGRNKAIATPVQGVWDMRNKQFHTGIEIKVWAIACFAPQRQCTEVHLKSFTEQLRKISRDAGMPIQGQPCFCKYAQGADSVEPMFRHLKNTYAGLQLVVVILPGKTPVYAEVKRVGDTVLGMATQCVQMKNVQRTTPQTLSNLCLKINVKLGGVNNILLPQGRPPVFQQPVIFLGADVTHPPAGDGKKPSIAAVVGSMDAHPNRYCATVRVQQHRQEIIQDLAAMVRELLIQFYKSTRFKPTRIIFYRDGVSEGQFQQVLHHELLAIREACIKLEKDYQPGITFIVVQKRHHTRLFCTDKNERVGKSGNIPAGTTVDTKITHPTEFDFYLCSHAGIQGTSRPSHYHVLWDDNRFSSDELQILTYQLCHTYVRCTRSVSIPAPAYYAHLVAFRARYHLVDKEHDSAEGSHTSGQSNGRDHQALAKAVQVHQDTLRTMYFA
# Experiments:
# PUM1 (Homo sapiens) = molecular target: T1, PUM1 (Homo sapiens) (UniProt Q14671); experiment: binding assay; conditions: protein in cells, protein details: endogenous
# T1 sequence (looked up, limits assumed): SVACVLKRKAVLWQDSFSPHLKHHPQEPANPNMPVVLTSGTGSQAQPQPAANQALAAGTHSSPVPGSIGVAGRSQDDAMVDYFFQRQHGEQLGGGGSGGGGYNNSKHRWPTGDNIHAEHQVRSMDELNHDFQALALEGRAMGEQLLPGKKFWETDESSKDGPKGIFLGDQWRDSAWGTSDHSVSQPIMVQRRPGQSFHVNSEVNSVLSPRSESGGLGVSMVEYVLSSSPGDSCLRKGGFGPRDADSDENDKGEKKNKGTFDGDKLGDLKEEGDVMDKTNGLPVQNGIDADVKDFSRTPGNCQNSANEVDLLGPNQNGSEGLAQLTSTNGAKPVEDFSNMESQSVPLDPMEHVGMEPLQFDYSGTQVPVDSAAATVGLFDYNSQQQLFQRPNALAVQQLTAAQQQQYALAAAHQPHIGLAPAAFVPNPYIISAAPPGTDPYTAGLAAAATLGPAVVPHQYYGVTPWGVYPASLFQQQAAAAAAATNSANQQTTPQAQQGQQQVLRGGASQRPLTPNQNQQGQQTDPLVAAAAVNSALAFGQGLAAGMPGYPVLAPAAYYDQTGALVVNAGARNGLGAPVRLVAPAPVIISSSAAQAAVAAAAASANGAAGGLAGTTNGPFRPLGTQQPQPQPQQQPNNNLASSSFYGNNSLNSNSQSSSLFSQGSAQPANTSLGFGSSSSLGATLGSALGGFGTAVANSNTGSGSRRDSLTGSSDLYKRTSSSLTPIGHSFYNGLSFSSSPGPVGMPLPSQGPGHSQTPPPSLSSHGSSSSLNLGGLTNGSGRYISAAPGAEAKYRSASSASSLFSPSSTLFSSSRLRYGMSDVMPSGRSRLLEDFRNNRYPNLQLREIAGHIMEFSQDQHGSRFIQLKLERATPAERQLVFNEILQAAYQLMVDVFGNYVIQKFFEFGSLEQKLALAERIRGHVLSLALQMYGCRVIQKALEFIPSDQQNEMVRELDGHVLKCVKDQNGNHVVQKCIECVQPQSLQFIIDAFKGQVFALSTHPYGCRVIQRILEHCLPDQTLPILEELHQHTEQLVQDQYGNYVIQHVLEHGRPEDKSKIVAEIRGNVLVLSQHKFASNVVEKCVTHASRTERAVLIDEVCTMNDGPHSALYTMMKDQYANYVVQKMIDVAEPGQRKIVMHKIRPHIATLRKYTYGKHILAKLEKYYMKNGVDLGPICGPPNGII
# PUM2 (Homo sapiens) = molecular target: T2, PUM2 (Homo sapiens) (UniProt Q8TB72); experiment: binding assay; conditions: protein in cells, protein details: endogenous
# T2 sequence (looked up, limits assumed): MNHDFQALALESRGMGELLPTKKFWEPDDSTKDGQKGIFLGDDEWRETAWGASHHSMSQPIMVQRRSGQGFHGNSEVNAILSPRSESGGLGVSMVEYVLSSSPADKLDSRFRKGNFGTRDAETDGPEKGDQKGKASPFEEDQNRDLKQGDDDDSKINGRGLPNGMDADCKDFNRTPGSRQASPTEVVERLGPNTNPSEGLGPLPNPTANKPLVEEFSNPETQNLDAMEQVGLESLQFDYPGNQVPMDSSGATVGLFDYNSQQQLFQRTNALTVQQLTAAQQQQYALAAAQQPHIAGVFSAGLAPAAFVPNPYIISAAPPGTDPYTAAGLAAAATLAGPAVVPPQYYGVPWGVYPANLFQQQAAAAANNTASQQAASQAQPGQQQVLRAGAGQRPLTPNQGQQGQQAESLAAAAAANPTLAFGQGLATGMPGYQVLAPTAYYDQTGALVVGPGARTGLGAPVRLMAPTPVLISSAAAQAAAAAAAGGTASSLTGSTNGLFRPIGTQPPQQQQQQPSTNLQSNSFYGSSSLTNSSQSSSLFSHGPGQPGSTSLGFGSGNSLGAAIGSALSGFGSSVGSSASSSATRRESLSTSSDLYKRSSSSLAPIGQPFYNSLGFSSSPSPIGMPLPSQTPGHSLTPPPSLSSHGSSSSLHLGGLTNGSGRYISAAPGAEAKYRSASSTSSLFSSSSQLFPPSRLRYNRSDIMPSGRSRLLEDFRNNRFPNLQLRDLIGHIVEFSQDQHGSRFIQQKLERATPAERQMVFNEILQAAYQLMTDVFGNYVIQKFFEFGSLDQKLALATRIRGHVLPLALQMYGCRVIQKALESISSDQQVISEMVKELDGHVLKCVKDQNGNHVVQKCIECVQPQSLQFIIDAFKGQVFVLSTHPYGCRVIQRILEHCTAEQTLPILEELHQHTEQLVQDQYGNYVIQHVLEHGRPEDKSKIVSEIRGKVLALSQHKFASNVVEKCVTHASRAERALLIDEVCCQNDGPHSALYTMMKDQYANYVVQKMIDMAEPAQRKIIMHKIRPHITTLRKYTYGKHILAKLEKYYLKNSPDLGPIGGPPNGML
# Ago2 (Mus musculus) = Ago2 (Mus musculus) (UniProt Q8CJG0); experiment: binding assay; conditions: CITED Ago2 CLIP, mouse brain; miR-153 guided; protein in cells; protein details: endogenous, mouse brain
# DHX36 (Mus musculus) = molecular target: T3, DHX36 (Mus musculus) (UniProt Q8VHK9); experiment: pull-down; conditions: N2a lysate, mass spectrometry; highest enrichment versus mutated sequences; protein in an extract; protein details: endogenous, Neuro2a cell lysate; label: biotin (Biotin RNA labeling mix)
# T3 sequence (looked up, limits assumed): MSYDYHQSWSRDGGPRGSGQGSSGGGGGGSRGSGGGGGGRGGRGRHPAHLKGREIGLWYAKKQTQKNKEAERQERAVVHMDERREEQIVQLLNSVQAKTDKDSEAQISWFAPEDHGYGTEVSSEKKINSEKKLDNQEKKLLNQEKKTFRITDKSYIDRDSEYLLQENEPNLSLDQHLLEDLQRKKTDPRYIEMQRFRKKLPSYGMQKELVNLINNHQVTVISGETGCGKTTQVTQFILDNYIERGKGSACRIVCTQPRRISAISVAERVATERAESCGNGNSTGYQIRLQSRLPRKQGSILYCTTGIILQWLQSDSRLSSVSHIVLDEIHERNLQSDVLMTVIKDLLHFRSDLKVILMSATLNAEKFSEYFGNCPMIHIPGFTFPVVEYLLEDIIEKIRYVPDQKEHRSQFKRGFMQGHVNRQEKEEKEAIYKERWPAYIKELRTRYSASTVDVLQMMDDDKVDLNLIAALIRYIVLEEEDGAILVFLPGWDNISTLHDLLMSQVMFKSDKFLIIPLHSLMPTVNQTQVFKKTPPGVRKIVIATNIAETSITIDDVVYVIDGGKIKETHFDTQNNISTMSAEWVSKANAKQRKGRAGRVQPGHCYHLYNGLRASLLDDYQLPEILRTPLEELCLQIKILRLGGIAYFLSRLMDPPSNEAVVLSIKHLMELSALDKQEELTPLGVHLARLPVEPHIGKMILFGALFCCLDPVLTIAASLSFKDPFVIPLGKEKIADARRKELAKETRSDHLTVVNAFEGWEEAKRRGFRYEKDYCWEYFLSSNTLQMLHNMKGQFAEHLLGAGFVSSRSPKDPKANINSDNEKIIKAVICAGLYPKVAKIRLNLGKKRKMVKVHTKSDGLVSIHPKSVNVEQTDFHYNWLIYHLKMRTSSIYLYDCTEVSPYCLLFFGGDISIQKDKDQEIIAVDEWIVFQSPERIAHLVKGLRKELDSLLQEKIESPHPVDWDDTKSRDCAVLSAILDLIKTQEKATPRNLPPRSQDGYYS
# Pum1/2 (Mus musculus) = experiment: binding assay; conditions: CITED mouse CLIP data; protein in cells; protein details: endogenous
# [1] = CITED ENCODE CLIP data, K562 and HCT116
sequence,measurement,setting,value
UGUACAUU [PUM1/PUM2 3'UTR motif],binding result,PUM1 (Homo sapiens); CITED ENCODE data,binds
same,binding result,PUM2 (Homo sapiens); CITED ENCODE data,binds
CUAUGCA [Cyrano miR-153 site region],binding result,Ago2 (Mus musculus),binds
CACCCCGCUUGAAGAGUUUGAAAUGGACUUUACCACUGAGAAAUCAAGAUGGCAGCCCAUUAUGGGGAAUUGAGGAAAAUGGAUUAAUGCAAGAAUGCUGUAAUAUUAUACAACCAACACAGGAUUCUUUUAAUGUGGAUUCCAUGAAAUGAAUGAUUCUUACCCAACACAAAUGGACAGUGGAAUUUACUUCCUAAAGACUUGUUACAUGUCAUGUACAUUUUUGACAUCUGGAGAAGACUCUACAAUUCUACAAAUGGUAGUUUGUAUUCCUGGAAUUUCUUGCAGUUUGAUCUGAAGUGACCUUAUGGAAUGUUAACUUUAAUAAAAU [Chaserr Exon5-WT],binding result,DHX36 (Mus musculus),binds
UGUAUAG [Cyrano PRE element 6],binding result,PUM1 (Homo sapiens); [1],binds
same,binding result,PUM2 (Homo sapiens); [1],binds
same,binding result,Pum1/2 (Mus musculus),binds

# The exact form of at least one protein or probe is not confirmed. Results from cells or extracts need not show a direct contact. For some of these results: Where a protein sequence is shown, tags need not be part of it.
